Measurements from paper doi:10.1101/2023.03.16.533063.
These are yes or no findings as the source states them, for the method shown. In cells and extracts the contact can be indirect. Here binding means that the protein was enriched with, or labelled near, the bait; the list need not be complete.

Molecular target: PfRNF1-GFP-BirA fusion protein (P. falciparum) (UniProt O97260)
Test: proximity labelling

RPT1 (from UniProt Q8IEK3)
binding: binds

zinc finger protein PF3D7_1220000 (from UniProt Q8I5L2)
binding: binds

RPT3 (from UniProt Q8I1V1)
binding: binds

PABP1 (from UniProt Q8I5H4)
binding: binds

PfZNF4 (from UniProt Q8II18)
binding: binds

NOT2 (from UniProt Q8II77)
binding: binds

CAF40 (from UniProt Q8I427)
binding: binds

zinc finger protein PF3D7_1205500 (from UniProt Q8I5Z0)
binding: binds

RPT6 (from UniProt Q8I4U5)
binding: binds

Puf1 (from UniProt Q8I3S3)
binding: binds

CAF1 (from UniProt C0H4T9)
binding: binds

NOT1-G (from UniProt Q8ILS4)
binding: binds

RPN2 (from UniProt Q8IKH3)
binding: binds

NOT1 (from UniProt Q8IIW4)
binding: binds

zinc finger protein PF3D7_0927200 (from UniProt C0H566 1-1627)
binding: binds

zinc finger protein PF3D7_0522900 (from UniProt Q8I3N4 1-1552)
binding: binds

DOZI (from UniProt O97285)
binding: binds

RPN11 (from UniProt Q8ID28)
binding: binds

RPT5 (from UniProt Q8II60)
binding: binds

CITH (from UniProt Q8IK89)
binding: binds

zinc finger protein PF3D7_0602000 (from UniProt C6KSM0 1-1437)
binding: binds
